Laboratory results: patent US12251377B2, “Anticoagulant compositions and uses thereof” (University of Rochester, priority 2019, dated 2025)
At least one structure is not confirmed: it was looked up by name or label, or the drawing left a doubt.

Experiments:
Format in all cases: biochemical
[1] = system: coagulation of human blood; assay: Thromboelastography, TEG 5000 rapid TEG test, clotting/reactive time (R)
Method: (§1) In the examples below, studies were carried out to examine effects of dabigatran on coagulation of human blood. The studies were approved by the Institutional Review Board (University of Rochester RSRB, Rochester, NY) and informed consent was obtained from all subjects. Six healthy non-pregnant donors between 18-70 years old were recruited for the study. Subjects were excluded from the recent infections, disorders of immune system, hematological disorders including prior history of clotting issues, malignancies. Current medications and herbal supplements were recorded. Standard phlebotomy procedures performed by trained personal were used to collect no more than 250 ml of whole blood in two months. […]
Methods: Dabigatran (CLEARSYNTH, Catalog No. CS-O-03403; CAS number 211914-51-1) was initially dissolved in 0.1M HCL to 16.6 mg/ml, followed by diluting to 240 μg/ml, using 50% DMSO. […] TEG 5000 (rapid TEG test) and ROTEM (ex-tem test) were used to measure anticoagulation and the corresponding reactive time (R) and coagulation time (CT) were recorded.
(§2) Methods: Dabigatran was initially dissolved in 0.1 M HCL, followed by diluting 1:1 with DMSO/H2O to prepare four stock solutions: […]. […] Blood clotting was monitored for 120 minutes. […]
Each of the dabibatran-containing blood sample described above was examined for clotting time R measured by TEG in the manner described above.

[2] = system: coagulation of human blood; assay: Rotational thromboelastometry, ROTEM ex-tem test, coagulation time (CT); settings: Dabigatran 18.75-1200 ng/ml in citrated human blood, N=6 donors, FIG. 1B
[3] = system: coagulation of human blood; assay: Chandler Loop System, clot formation in circulating blood; settings: blood from all six volunteers, 120 min of circulation
Method: as §1, with “months. The collected blood was anticoagulated with 0.109 M Na citrate and tested within four hours. Dabigatran was purchased from CLEARSYNTH (Ontario, Canada). The study was initiated in three steps: Effect of high-dose Dabigatran on coagulation of human blood in-vitro; Evaluation of the anticoagulant effect of Dabigatran in the Chandler Loop System; and Anticoagulation effect of Dabigatran in the Cardiopulmonary bypass circuit simulation.” for “months.”
as §2

[4] = system: coagulation of human blood; assay: Cardiopulmonary bypass circuit simulation (arterio-venous loop); settings: 2 hours of blood perfusion
Method: In the examples below, studies were carried out to examine effects of dabigatran on coagulation of human blood. The studies were approved by the Institutional Review Board (University of Rochester RSRB, Rochester, NY) and informed consent was obtained from all subjects. Six healthy non-pregnant donors between 18-70 years old were recruited for the study. Subjects were excluded from the recent infections, disorders of immune system, hematological disorders including prior history of clotting issues, malignancies. Current medications and herbal supplements were recorded. Standard phlebotomy procedures performed by trained personal were used to collect no more than 250 ml of whole blood in two months. The collected blood was anticoagulated with 0.109 M Na citrate and tested within four hours. Dabigatran was purchased from CLEARSYNTH (Ontario, Canada). The study was initiated in three steps: Effect of high-dose Dabigatran on coagulation of human blood in-vitro; Evaluation of the anticoagulant effect of Dabigatran in the Chandler Loop System; and Anticoagulation effect of Dabigatran in the Cardiopulmonary bypass circuit simulation.
Goal: Intention of this study was to evaluate the dose-dependent anticoagulation properties of Dabigatran at 5000, 7500 and 10000 ng/ml in Cardiopulmonary bypass circuit (arterio-venous loop) with the tight temperature, blood gases (pO2, pCO2) and electrolytes (Na, K, Ca, CL) control.
Methods: 5 mg of Dabigatran was initially dissolved in 300 μl of 0.075 M HCL, followed by diluting with 1 ml of 20% Dimethylacetamide in H2O to get 3840 μg/ml stock according to steps 1-3 below. […]

SMILES: [H]/N=C(/N)c1ccc(NCc2nc3cc(C(=O)N(CCC(=O)O)c4ccccn4)ccc3n2C)cc1 [Dabigatran]
- prolongation of clotting/reactive time (R) measured by TEG ([1]; Dabigatran 18.75-1200 ng/ml in citrated human blood, N=6 donors, FIG. 1A): in a dose dependent manner
- prolongation of R time measured by TEG ([1]; Dabigatran 2400, 4800, 9600 and 19200 ng/ml in citrated blood, FIG. 2A): in a dose dependent manner
- prolongation of coagulation time (CT) recorded by ROTEM [2]: in a dose dependent manner
- clot formation in the Chandler loop ([3]; Dabigatran 9600 ng/ml): prevented clot formation
- clot formation in the Chandler loop ([3]; Dabigatran 19200 ng/ml): prevented clot formation
- fibrin deposition on arterial filter (electron microscopy) ([4]; Dabigatran 5000 ng/ml): fibrin deposition
- fibrin deposition on arterial filter (electron microscopy) ([4]; Dabigatran 7500 ng/ml, compared to heparin): prevented deposition of fibrin with equal efficacy to heparin
- fibrin deposition on arterial filter (electron microscopy) ([4]; Dabigatran 10000 ng/ml, compared to heparin): prevented deposition of fibrin with equal efficacy to heparin
